Measurements published in PubChem BioAssay AID540256 (National Center for Advancing Translational Sciences (NCATS), 2011).
Screen size: about 300,000 compounds; about 3,700 (1.2%) were called active. Inconclusive results, whose numbers are uncertain, are shown with a selection of clear calls. The call rests on the fitted dose curve; tested in HEK293 cells. Where the call is inconclusive, the potency comes from a doubtful curve fit.

assay: qHTS for Inhibitors of binding or entry into cells for Lassa Virus; details: Lassa virus pseudotype entry inhibition, cell reporter; series mostly up to 37.9 µM; further: nearly all actives have a fitted effect of over 50% in size
Potency means the concentration at half of the fitted maximal effect.

Structure (SMILES)	Potency
Cc1oc(CC(C)C)cc1C(=O)Nc1cccc2ccccc12	inactive
CC1CCC(C(C)C)C(OC(=O)Cn2c(-c3ccc(Br)cc3)[n+](C)c3ccccc32)C1 (stereo not drawn)	inconclusive: 22.4 µM [inhibitor, single point]
Cc1ccc(-n2ncc(C(=O)Nc3ccc4c(c3)OCO4)c2C2CCN(C(=O)OC(C)(C)C)CC2)c(C)c1	inconclusive: 35.5 µM [inhibitor, single point]
COc1ccc(NC(=O)COC(=O)c2ccc(OC)c(S(=O)(=O)N3CCCC3)c2)cc1OC	inactive
COc1ccccc1NC(C)C(=O)N/N=C/c1cccs1 (stereo not drawn)	inconclusive: 39.8 µM [inhibitor, partial curve, poor fit]
Cc1oc2ccc(O)c(CN3CCCCC3)c2c1C(=O)Nc1cccc(C(F)(F)F)c1	inconclusive: 12.6 µM [inhibitor, partial curve, poor fit]
COc1cc(-c2noc(-c3ccc(NCc4ccco4)c([N+](=O)[O-])c3)n2)cc(OC)c1OC	inconclusive: 25.1 µM [activator, single point]
COc1ccc2c(c1OC)C(=O)N(c1nccs1)C2	inconclusive: 1.12 µM [activator, partial curve, poor fit]
CC(C(=O)c1ccc(-c2ccccc2)cc1)[n+]1cccc(C(N)=O)c1 (stereo not drawn)	inconclusive: 3.16 µM [inhibitor, single point]
COc1ccc(S(=O)(=O)N[C@@H](CSCc2ccccc2)C(=O)O)cc1	inactive
CCOC(=O)c1ccc(NC(=O)c2c(C)nn(-c3ccc(F)cc3)c2-n2cccc2)cc1	inactive
CCN1CCN(C(=O)Nc2ccccc2OC)CC1	inconclusive: 0.58 µM [inhibitor, partial curve, poor fit]
COc1ccc(OC)c(NC(=O)[C@@H]2CCCN2C(=O)c2cccs2)c1	inconclusive: 0.631 µM [inhibitor, single point]
COc1ccc(N(C(=O)c2cccc(C)c2)S(=O)(=O)c2ccc(C)cc2)cc1	inconclusive: 31.6 µM [inhibitor, single point]
CN(c1ccccc1)S(=O)(=O)c1cccc(NC(=O)CSc2nnc(N)s2)c1	inconclusive: 29.1 µM [inhibitor, single point]
CCc1c(C)[nH]c2ccc(C)cc2c1=O	inconclusive: 29.1 µM [inhibitor, single point]
CCc1ccc(C(=O)NC(=S)Nc2ccc3c(c2)OCCO3)cc1	inconclusive: 35.5 µM [inhibitor, single point]
CCOc1ccccc1N1CC(C(=O)Nc2ccccc2CC)CC1=O (stereo not drawn)	inconclusive: 5.62 µM [inhibitor, single point]
O=C1/C(=C\c2ccccc2)CN(C(=O)CCN2CCCCC2)C/C1=C/c1ccccc1	inconclusive: 25.1 µM [inhibitor, single point]
CCNC(=S)NNC(=O)c1cc(-c2cccc(C)c2)nc2ccccc12	inconclusive: 14.6 µM [inhibitor, single point]
O=C(COc1ccccc1Cl)N(Cc1ccco1)C1CCS(=O)(=O)C1 (stereo not drawn)	inconclusive: 32.6 µM [inhibitor, single point]
O=C(c1ccc(Cl)cc1)N1CCN(c2ccnc3cc(Cl)ccc23)CC1	inconclusive: 35.5 µM [inhibitor, single point]

Of the compounds above, 2 have a Cl atom.
Structure (SMILES)	Potency
O=C(COc1ccccc1Cl)N(Cc1ccco1)C1CCS(=O)(=O)C1 (stereo not drawn)	inconclusive: 32.6 µM [inhibitor, single point]
O=C(c1ccc(Cl)cc1)N1CCN(c2ccnc3cc(Cl)ccc23)CC1	inconclusive: 35.5 µM [inhibitor, single point]

The listing continues.

Structure (SMILES)	Potency
COc1cc(C2CC(=O)N(c3ccc(C)cc3)C(=O)C2)cc(OC)c1OC	inconclusive: 3.16 µM [inhibitor, partial curve, poor fit]
COc1ccc(N(Cc2cccs2)C(=O)c2ccc(C(C)(C)C)cc2)cc1	inactive
COC(=O)c1scc(S(=O)(=O)C(C)(C)C)c1N	inconclusive: 1.26 µM [inhibitor, single point]
CCN1CCN(c2ccc(S(=O)(=O)N3CCCCC3)cc2NC(=O)COc2ccccc2)CC1	inconclusive: 1.12 µM [inhibitor, full curve, poor fit]
CC(=O)N(C)c1ccc(N=Nc2ccc3ncccc3c2)cc1	active: 10 µM
Cc1ccccc1-c1n[nH]c(=S)n1/N=C/c1c(C)nn(-c2ccccc2)c1C	inconclusive: 17.8 µM [inhibitor, partial curve, poor fit]
CCC(C(=O)O/N=C(\N)c1ccc(C)cc1)c1ccccc1 (stereo not drawn)	inconclusive: 20.6 µM [inhibitor, single point]
COc1ccccc1NC(=S)N(CCN1CCCCCC1)Cc1cccs1	inconclusive: 10 µM [activator, partial curve, poor fit]
Cc1ccsc1/C=N/Nc1nc(=O)[nH]nc1C	active: 18.3 µM
CCc1c(C)[nH]n(-c2ccc(Oc3ccccc3)c(S(=O)(=O)O)c2)c1=O	inconclusive: 4.61 µM [inhibitor, single point]
CCN(CC)CCN(C(=O)c1cc2c(ccc3ccccc32)oc1=O)c1nc2cc3c(cc2s1)OCCO3	inactive
OC(c1cc(C(F)(F)F)nc2c(Cl)cc(Cl)cc12)C1CCCCN1 (stereo not drawn)	inconclusive: 31.6 µM [inhibitor, single point]
Cn1c(=O)c2c(nc(NN=C3CCCCC3)n2C)n(C)c1=O	inactive
COc1cccc(-c2nnc(-c3ccc(C)o3)o2)c1	inconclusive: 29.1 µM [inhibitor, single point]
Oc1ccc2ccccc2c1CNc1ccccc1	inconclusive: 12.6 µM [activator, single point]
O=C1CSC(c2cccs2)N1c1ccccc1 (stereo not drawn)	inactive
CCc1ccccc1NC(=O)Nc1nnc(N(C)Cc2ccccc2)s1	inactive
COc1ccc(/C=C/C(=O)Nc2nc3n(n2)C(c2ccccc2)C=C(c2ccc(Cl)cc2)N3)cc1 (stereo not drawn)	inconclusive: 35.5 µM [inhibitor, single point]
COc1ccc2c(Sc3ccccc3)c(C(=O)NCCCN3CCCCC3)[nH]c2c1	inconclusive: 35.5 µM [inhibitor, single point]
N#CC(C#N)=C1CCCc2sccc21	inactive
O=C1C(=C2CCc3ccccc32)Cc2ccccc21	inconclusive: 15.8 µM [inhibitor, single point]
